# Values from PubChem BioAssay AID1159578 (Peter MacCallum Cancer Centre, 2015)
# Screen: 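Knock-downs that alter how fast lymphatic endothelial cells migrate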 (primary screen)
# Cell system: human lymphatic endothelial cells
# Knock-down reagent: siRNA pool against human genes, 40 nM
# Time to read-out: 48 h after transfection
# Measurement: 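High-content imaging of dye-stained cells in a scratch assay measures filled wound area and nuclei per well; duplicate means given as ratio to mock and robust z-score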
# Direction: migration robust z-score: higher = faster migration into the scratch; nuclei per well: higher = more cells in the well
# Active means: 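Pools averaging fewer than 3300 nuclei are never called; remaining pools count as changed when migration robust z lies outside -2 to 2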
# Calls: active = migration changed; inactive = no migration change, or too few cells
# Here is a random part of about 18,000 reagents. Over the whole deposit, about 1,030 (5.7%) were called active. 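Inactive calls also include pools with fewer than 3300 nuclei, whose migration was not assessed.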 Raw values vary from plate to plate and are shown uncorrected. Further read-outs or replicates are left out here.
target,migration robust z-score,"nuclei per well, duplicate mean",outcome
BPIFA2 (BPI fold containing family A member 2),-0.19,5369,inactive
GCM1 (GCM transcription factor 1),0.36,3926,inactive
IL22RA1 (interleukin 22 receptor subunit alpha 1),0.42,3618,inactive
HBP1 (HMG-box transcription factor 1),-0.82,5711,inactive
LCE2C (late cornified envelope 2C),-1.27,5496,inactive
COL14A1 (collagen type XIV alpha 1 chain),-2.64,3126,inactive
EEF2 (eukaryotic translation elongation factor 2),0.76,5922,inactive
ADGRV1 (adhesion G protein-coupled receptor V1),0.24,6868,inactive
GALNTL6 (polypeptide N-acetylgalactosaminyltransferase like 6),0.65,6626,inactive
SIGLEC8 (sialic acid binding Ig like lectin 8),-0.57,7098,inactive
MXRA5 (matrix remodeling associated 5),0.88,7246,inactive
DYNLT5 (dynein light chain Tctex-type family member 5),-0.26,4653,inactive
TIMM10 (translocase of inner mitochondrial membrane 10),-1.87,4892,inactive
UTP14A (UTP14A small subunit processome component),1.5,7390,inactive
GABRD (gamma-aminobutyric acid type A receptor subunit delta),-1.32,3180,inactive

In a second layout: 4 of the entries above
GCM1 (GCM transcription factor 1)
- migration robust z-score: 0.36
- nuclei per well, duplicate mean: 3926
- outcome: inactive

IL22RA1 (interleukin 22 receptor subunit alpha 1)
- migration robust z-score: 0.42
- nuclei per well, duplicate mean: 3618
- outcome: inactive

HBP1 (HMG-box transcription factor 1)
- migration robust z-score: -0.82
- nuclei per well, duplicate mean: 5711
- outcome: inactive

LCE2C (late cornified envelope 2C)
- migration robust z-score: -1.27
- nuclei per well, duplicate mean: 5496
- outcome: inactive

The results go on:
target,migration robust z-score,"nuclei per well, duplicate mean",outcome
RIT1 (Ras like without CAAX 1),-1.79,4899,inactive
PAQR4 (progestin and adipoQ receptor family member 4),1.7,6206,inactive
DNAJC18 (DnaJ heat shock protein family (Hsp40) member C18),-1.35,4362,inactive
TM6SF2 (transmembrane 6 superfamily member 2),-0.12,5380,inactive
R3HDM2 (R3H domain containing 2),0.4,4726,inactive
MAML3 (mastermind like transcriptional coactivator 3),-0.29,4360,inactive
ANAPC11 (anaphase promoting complex subunit 11),0.96,3702,inactive
RPRD2 (regulation of nuclear pre-mRNA domain containing 2),0.12,5841,inactive
